Series [1] deals with Bovine embryonic fibroblasts (BEF). The series can be described thus: Beta-carotene uptake from the medium into bovine cells (absorbance spectrum, spectrophotometer). It is filed as cell-based.
The subject of series [2] is BEF cells. Put plainly: Carotenoid uptake, UPLC-UV/Vis of cell pellet, BEF cells. It is filed as cell-based, bovine. The note with it: beta-carotene 10% emulsion red, 24 hours.
For series [3], the system named is mixture containing BEF and BEM cells. Put plainly: Zinc enrichment of cells, IPC-MS. The note with it: 72 hours. The class given is cell-based, bovine.
For series [4], the system named is BEF cells. The series can be described thus: Cyanocobalamin coloring of bovine cells. The class given is cell-based.
For series [5], the system named is BEF cells. Put plainly: Vitamin B12 enrichment of cells, HPLC-UV/Vis of cell pellet. The class given is cell-based, bovine.
Series [6] concerns BEF cells. The note with it: 0.5 mM in medium, 24 hours.
In series [7] the test system is mixture of BEF and BEM cells. Put plainly: Carotenoid uptake, UPLC-UV/Vis of cell pellet, mixture of BEF and BEM cells. The class given is cell-based, bovine. The note with it: 24 hours.
[8] abbreviates: water soluble beta-carotene, BEF cells, after 24 hours.

Turning to `CC1=C(/C=C/C(C)=C/C=C/C(C)=C/C=C/C=C(C)/C=C/C=C(C)/C=C/C2=C(C)CCCC2(C)C)C(C)(C)CCC1` [beta-carotene], the “total uptake of beta carotene by the cells” value in series [1] (100 μg of beta-carotene applied to 1.4*10^6 cells, 24 hours) was determined as 40 µg. Besides, in series [1] (water soluble beta-carotene, 24 hours), the “color of the cells” value is “strong orange color”. Moreover, in series [1] (setting [8]), the “decrease of beta carotene optical density peak at 450 nm in the growth medium” value was found to be 2.7 fold, the “decrease of beta carotene optical density peak at 480 nm in the growth medium” value came to 2.3 fold and the “decrease of beta carotene optical density peak at 520 nm in the growth medium” value is reported as 2.4 fold. Besides, in series [2] (110 μg/ml), the cells pellet color result is on record as “red-orange color”. Further, the “uptake, concentration of pure nutrient in the cells” value in series [2] (0.11 mg/ml in medium) came to 200 μg beta-carotene/gr cells.
Regarding `[Cl-].[Cl-].[Zn+2]` [zinc chloride, Zinc chloride], the “zinc content of cells (uptake)” value in series [3] (100 μM (13 μg/ml), unsupplemented medium 8.5) stood at 30.44 μg zinc/gr cells. For the same compound, in series [3] (100 μM), the “increase of zinc content versus unsupplemented medium” value is on record as “about 3.6 folds”.
With Cyanocobalamin [Vitamin B12], the “color of the cells” value in series [4] (10 μg/ml, 24 h) is “no visual change”; in series [4] (100 μg/ml, 24 h), “no visual change”; in series [4] (1 mg per ml growth medium, bovine-embryonic fibroblasts and myoblasts), “distinct red-pink color”; in series [4] (1000 μg/ml, 24 h), “red-pink”. Moreover, the “kind of uptake over the concentrations examined” value in series [5] (1.67, 3.33, 6.67 and 13.3 mg/ml) is recorded as “linear uptake”. Besides, the cells pellets color result in series [5] (13.3, 6.67, 3.33 and 1.67 mg/ml, 24 hours) is “red-pink in various intensities”. In addition, the “μg Vitamin B12/g cells” value in series [5] (concentration in the medium 1.67 mg/ml, 24 hours) was found to be 104.0 μg Vitamin B12/g cells; in series [5] (concentration in the medium 3.33 mg/ml, 24 hours), 417 μg Vitamin B12/g cells; in series [5] (concentration in the medium 6.67 mg/ml, 24 hours), 851 μg Vitamin B12/g cells; in series [5] (concentration in the medium 13.33 mg/ml, 24 hours) it was 1102 μg Vitamin B12/g cells.
Turning to `O.O.O.O.O.O.O.O=S(=O)([O-])[O-].[Fe+2]` [Iron Sulfate heptahydrate, Iron (II) Sulfate heptahydrate], the “increase of iron content versus standard medium only” value in series [6] is recorded as “about 3 fold”. Further, the “iron content of cells” value in series [6] (BEF cells at full confluence, standard medium only 8.36) was determined as 25.11 μg iron/g cells.
For the compound `CC1=C(/C=C/C(C)=C/C=C/C(C)=C/C=C/C=C(C)/C=C/C=C(C)/C=C/C2=C(C)C(=O)CCC2(C)C)C(C)(C)CCC1=O` [Canthaxanthin], the cells pellet color entry in series [7] (1.1 mg/ml) is reported as “red-orange”. For the same compound, in series [7] (Canthaxanthin 10% CWS/S, 1.1 mg/ml in medium, BEF and BEM cells), the “uptake, concentration of pure nutrient in the cells” value was 420 μg Canthaxanthin/gr cells.

These data come from patent publication US12349704B2, “High quality cultured meat, compositions and methods for producing same” (ALEPH FARMS LTD., priority 2018, dated 2025).
